Laboratory results as given in patent US20140213771A1.
Results are given in words; binding and its absence hold for the method and conditions named. Some entries that bind do so weakly or less than the wild type.

Target: IL-17 (UniProt Q16552)
Assay: SPR; clone 4 captured on anti huIgG FC surface, antigens (500 nM each) injected sequentially

- binding: binds
Substance: pDVD-Ig clone 4 (from UniProt P0DOX5 218-449; P0DOX5 218-449)
